{"source": "patent US20200038486A1", "about": "“THERAPEUTIC MEDICINE FOR FIBROUS DISEASE” (StemRIM Inc., priority 2017, published 2020)", "type_in_all_cases": "in vivo", "key": {"[1]": {"system": "C57BL/6 male mice with skin ulcer", "experiment": "Full-thickness skin defect-type ulcer mouse model (Masson's-Trichrome staining of ulcer site)", "conditions": "1.5 mg/kg/day via tail vein, eight times; skin 28 days after ulcer creation; MT staining"}, "[2]": {"system": "129SV/colVII homo mice (epidermolysis bullosa model mice)", "experiment": "Forelimb finger adhesion in epidermolysis bullosa model mice", "conditions": "0.2 mg/mL, 50 μL i.v. via tail vein, twice a week over four weeks (eight doses); four to eight weeks after start of administration; statistically significantly lower (Mann-Whitney's U test)"}, "[3]": {"system": "129SV/colVII homo mice (epidermolysis bullosa model mice)", "experiment": "Fibrosing and scarring of small intestine in epidermolysis bullosa model mice (HE and MT staining)", "conditions": "sampled at Week 7, 10, 11 after start, n=3"}}, "note": "Not every detail of the peptide structures is certain; ends, links or a residue may be inferred. Where no end group is shown, it is not given here."}
{"sequence": "MGKGDPKKPRGKMSSYAFFVQTCREEHKKKHPDASVNFSEFSKK [HMGB1 peptide (1-44)]", "values": [{"measurement": "signal of collagen fibers in the center region (ulcer site) compared with the vehicle-treated group", "setting": "[1]", "result": "tended to be weak"}, {"measurement": "adhesion score of forelimb fingers compared with the vehicle group", "setting": "[2]", "result": "about half of that in the vehicle group"}, {"measurement": "intestinal stenosis, filling of gas, and loss of villi (HE staining of small intestine)", "setting": "[3]; 0.2 mg/mL, 50 μL via tail vein, eight doses, seen in all three vehicle animals", "result": "none of the animals"}, {"measurement": "thickening of the intestinal wall due to scarring", "setting": "[3]; small intestine", "result": "no thickening of the intestinal wall was observed"}, {"measurement": "collagen fibril deposition in the small-intestinal wall (MT staining)", "setting": "[3]; small intestine, notable deposition in vehicle group", "result": "blue-stained area is almost not seen"}]}
